Reference: the supplement of paper PMC10849652
The other results are listed elsewhere or left out.

Amino acid sequences for entries named in this document (tags omitted). A change or cut given only in a name is not applied to a line headed by its entry.
UniProt Q9H0S4: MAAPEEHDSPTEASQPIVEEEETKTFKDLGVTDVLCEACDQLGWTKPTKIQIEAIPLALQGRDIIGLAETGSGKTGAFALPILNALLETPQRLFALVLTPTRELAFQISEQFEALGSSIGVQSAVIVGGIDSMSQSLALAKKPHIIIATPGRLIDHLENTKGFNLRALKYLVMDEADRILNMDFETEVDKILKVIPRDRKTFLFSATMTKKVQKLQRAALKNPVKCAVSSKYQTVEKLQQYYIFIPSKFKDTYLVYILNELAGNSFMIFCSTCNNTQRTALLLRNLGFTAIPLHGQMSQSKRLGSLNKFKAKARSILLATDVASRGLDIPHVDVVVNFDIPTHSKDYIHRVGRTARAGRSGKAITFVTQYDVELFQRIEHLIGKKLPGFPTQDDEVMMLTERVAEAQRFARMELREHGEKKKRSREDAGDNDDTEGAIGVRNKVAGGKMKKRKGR
UniProt Q6IAN0: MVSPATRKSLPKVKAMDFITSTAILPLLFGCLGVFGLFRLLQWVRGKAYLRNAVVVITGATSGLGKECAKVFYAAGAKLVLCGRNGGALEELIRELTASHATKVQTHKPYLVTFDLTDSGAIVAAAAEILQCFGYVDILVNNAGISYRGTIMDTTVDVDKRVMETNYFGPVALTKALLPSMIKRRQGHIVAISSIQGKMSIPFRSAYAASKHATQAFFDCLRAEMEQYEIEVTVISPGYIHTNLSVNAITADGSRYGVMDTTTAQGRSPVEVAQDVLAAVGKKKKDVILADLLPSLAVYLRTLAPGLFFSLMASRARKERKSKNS
UniProt P09622, whole entry, looked up: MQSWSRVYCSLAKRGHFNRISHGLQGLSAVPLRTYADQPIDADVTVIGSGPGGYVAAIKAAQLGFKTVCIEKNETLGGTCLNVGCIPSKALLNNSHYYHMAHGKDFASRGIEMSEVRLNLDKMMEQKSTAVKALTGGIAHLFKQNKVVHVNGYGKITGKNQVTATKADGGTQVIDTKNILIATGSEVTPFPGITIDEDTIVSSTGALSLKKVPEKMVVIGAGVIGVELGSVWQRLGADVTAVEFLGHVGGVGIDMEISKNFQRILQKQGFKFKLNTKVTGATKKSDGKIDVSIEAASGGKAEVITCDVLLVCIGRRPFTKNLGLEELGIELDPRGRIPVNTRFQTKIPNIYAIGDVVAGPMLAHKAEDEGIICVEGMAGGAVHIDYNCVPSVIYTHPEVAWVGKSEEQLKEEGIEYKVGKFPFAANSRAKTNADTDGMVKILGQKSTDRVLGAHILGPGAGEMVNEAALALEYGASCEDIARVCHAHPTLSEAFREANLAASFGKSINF
UniProt Q9BTC0, whole entry, looked up: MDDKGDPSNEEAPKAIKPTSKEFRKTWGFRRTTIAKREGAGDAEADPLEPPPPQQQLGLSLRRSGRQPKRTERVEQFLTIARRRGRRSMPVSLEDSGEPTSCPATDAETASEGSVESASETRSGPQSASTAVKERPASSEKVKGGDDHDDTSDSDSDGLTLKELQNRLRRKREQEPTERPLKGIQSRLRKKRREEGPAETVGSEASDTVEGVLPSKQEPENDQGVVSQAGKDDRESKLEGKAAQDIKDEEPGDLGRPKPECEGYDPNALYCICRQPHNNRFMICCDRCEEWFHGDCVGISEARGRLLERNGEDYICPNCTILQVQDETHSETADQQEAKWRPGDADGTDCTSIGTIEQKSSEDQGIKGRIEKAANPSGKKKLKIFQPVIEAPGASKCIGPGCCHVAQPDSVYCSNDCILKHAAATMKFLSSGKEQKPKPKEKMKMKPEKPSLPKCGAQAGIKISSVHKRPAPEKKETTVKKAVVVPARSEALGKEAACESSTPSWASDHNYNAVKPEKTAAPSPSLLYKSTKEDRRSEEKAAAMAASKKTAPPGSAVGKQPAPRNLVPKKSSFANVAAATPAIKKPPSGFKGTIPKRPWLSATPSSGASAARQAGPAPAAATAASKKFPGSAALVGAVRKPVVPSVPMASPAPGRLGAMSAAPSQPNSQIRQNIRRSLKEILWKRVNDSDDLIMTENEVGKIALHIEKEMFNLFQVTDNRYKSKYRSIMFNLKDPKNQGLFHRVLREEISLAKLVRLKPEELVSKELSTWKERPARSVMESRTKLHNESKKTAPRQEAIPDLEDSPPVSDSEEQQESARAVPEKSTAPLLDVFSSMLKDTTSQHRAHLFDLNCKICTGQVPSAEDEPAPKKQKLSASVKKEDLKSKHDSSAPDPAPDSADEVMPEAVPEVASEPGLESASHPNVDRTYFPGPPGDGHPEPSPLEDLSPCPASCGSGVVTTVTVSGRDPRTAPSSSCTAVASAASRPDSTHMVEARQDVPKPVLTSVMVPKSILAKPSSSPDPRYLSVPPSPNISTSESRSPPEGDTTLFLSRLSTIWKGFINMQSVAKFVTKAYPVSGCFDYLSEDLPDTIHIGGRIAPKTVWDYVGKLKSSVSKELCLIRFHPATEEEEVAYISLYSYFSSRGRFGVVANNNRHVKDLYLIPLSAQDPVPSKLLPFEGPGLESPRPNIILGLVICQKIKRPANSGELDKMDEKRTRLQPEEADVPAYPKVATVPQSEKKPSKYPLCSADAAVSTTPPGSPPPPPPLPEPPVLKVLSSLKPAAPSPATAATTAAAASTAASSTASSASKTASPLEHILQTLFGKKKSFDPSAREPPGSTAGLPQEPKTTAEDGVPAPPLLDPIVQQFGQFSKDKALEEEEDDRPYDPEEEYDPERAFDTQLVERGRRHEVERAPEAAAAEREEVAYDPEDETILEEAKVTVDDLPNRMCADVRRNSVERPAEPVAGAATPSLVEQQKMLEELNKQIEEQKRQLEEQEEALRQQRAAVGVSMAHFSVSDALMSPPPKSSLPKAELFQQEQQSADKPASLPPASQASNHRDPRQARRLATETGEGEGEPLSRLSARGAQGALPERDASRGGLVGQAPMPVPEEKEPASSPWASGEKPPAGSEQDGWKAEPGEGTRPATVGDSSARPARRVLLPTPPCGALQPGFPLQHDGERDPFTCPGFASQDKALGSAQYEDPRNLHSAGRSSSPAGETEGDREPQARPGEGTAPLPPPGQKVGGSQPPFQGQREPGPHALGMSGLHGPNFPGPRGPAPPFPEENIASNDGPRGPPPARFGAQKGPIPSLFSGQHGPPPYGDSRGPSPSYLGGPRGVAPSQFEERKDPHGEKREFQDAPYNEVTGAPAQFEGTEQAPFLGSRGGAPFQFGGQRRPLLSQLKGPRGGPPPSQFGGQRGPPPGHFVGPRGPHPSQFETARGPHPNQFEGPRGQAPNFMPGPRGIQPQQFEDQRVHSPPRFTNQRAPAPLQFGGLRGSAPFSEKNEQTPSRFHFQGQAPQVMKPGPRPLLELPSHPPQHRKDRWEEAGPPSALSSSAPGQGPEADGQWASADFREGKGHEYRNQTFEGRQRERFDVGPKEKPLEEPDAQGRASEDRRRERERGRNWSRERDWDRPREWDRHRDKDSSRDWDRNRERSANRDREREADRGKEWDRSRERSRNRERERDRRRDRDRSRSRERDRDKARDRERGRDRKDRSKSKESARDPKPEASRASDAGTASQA
UniProt Q86Y56: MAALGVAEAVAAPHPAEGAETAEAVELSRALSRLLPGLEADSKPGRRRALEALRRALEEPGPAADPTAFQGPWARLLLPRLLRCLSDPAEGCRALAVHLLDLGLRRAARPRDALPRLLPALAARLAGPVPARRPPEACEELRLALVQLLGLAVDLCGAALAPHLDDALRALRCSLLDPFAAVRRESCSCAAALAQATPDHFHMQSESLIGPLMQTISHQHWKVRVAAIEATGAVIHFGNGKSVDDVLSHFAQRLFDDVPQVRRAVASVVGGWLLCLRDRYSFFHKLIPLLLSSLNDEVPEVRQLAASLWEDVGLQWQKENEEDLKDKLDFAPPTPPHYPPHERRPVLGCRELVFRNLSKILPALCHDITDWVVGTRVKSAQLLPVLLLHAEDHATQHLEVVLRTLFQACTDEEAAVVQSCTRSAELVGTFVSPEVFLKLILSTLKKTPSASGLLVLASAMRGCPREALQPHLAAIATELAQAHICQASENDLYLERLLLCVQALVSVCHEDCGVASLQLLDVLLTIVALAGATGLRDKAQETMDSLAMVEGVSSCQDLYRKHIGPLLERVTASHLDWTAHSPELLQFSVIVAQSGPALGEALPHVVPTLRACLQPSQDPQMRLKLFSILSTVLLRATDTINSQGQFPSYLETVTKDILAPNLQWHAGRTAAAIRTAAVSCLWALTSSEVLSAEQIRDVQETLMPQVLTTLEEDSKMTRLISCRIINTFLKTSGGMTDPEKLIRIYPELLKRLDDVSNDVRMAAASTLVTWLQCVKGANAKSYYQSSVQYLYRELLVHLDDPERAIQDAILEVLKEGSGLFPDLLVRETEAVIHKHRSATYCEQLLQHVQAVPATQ
UniProt Q96GQ7: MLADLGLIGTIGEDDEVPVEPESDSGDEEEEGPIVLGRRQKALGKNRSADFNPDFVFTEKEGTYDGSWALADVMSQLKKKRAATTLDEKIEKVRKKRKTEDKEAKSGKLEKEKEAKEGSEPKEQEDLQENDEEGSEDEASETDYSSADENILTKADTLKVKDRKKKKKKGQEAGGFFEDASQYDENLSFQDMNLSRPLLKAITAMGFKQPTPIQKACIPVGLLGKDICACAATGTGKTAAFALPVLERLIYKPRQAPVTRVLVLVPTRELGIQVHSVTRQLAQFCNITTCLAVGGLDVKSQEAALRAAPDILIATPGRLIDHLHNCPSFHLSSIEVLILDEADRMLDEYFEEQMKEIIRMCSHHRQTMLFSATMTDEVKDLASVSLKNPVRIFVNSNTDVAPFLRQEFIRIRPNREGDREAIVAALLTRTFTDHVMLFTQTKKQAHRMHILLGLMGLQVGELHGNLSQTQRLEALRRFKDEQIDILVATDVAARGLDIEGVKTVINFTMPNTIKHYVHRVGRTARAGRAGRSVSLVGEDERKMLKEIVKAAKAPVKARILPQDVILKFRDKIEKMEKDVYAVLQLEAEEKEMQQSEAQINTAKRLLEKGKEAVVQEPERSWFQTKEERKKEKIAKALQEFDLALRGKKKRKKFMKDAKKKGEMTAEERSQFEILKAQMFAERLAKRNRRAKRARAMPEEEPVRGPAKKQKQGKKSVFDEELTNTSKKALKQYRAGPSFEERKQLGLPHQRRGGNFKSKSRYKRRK
UniProt Q9UHI6: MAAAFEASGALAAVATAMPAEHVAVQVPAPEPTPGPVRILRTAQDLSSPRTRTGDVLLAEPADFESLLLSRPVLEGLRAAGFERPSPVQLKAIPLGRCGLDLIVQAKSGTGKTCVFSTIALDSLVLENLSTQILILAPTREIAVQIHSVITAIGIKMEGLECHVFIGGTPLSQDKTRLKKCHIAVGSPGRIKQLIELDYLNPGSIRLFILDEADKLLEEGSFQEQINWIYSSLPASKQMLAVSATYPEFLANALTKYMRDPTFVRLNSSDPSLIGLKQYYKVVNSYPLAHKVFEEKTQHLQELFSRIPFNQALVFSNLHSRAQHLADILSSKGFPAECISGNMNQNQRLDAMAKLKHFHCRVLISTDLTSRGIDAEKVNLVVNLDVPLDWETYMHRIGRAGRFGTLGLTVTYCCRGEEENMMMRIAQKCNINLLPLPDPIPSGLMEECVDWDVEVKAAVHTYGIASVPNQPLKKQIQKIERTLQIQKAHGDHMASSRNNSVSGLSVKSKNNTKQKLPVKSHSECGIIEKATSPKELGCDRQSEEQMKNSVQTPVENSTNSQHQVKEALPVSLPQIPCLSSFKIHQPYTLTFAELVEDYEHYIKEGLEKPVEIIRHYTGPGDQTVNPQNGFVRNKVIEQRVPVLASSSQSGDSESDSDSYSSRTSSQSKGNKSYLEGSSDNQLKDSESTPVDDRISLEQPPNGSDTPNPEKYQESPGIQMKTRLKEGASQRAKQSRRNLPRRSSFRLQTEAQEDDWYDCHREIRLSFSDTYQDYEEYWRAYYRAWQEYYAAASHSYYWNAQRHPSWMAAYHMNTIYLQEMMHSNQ
UniProt O75911: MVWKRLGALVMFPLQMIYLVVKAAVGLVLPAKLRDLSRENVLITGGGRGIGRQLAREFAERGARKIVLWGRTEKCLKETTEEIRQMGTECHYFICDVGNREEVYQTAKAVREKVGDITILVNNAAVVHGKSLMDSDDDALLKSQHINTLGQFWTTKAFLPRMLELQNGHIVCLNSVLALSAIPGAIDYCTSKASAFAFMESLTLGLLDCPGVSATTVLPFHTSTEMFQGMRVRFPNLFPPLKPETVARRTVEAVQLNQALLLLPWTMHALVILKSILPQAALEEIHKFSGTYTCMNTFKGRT

Legend:
Test in all cases: log2 fold change, soluble protein after heating vs DMSO (PISA); higher = thermal stabilisation; K562 cells, 10 uM, 30 min; active = over 0.2 and 3.5 SD of the protein, either way, in both replicates (recomputed)
[1] = compound: CC1=C(C=C(C=C1)NC(=O)C2=CC(=CC=C2)C(C)(C)C#N)NC3=CC4=C(C=C3)N=CN(C4=O)C
In short: (§1)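 For each measurement, 10 μM compound was applied for 30 min to K562 cells at 2×10^6 cells/mL. Aliquots were heated for 3 min across 48°C-58°C, pooled, and extracted in PBS with 0.5% NP-40 at 4°C; the supernatant after 21,000xg for 90 min was soluble protein. This was quantified by TMTpro 16plex LC-MS/MS with channel sums equalised, and thermal stability was reported relative to control samples from duplicates, on a log2 fold-change scale.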

[2] = compound: CC1=C(C=C(C=C1)NC(=O)C2=CC(=CC=C2)N(C)C)NC(=O)C3=CC=C(C=C3)O
In short: as §1

[3] = compound: CCCCN(Cc1ccc(C(=O)NO)cc1)C(=O)Nc1ccccc1 [Nexturastat A]
In short: as §1

[4] = compound: CCCS(=O)(=O)Nc1ccc(F)c(C(=O)c2c[nH]c3ncc(-c4ccc(Cl)cc4)cc23)c1F [vemurafenib]
In short: as §1

[5] = compound: CCN(CC)Cc1ccc2cc(COC(=O)Nc3ccc(C(=O)NO)cc3)ccc2c1 [givinostat]
In short: as §1

[6] = compound: CCN(CCCOc1ccc2c(Nc3cc(CC(=O)Nc4cccc(F)c4)[nH]n3)ncnc2c1)CCOP(=O)(O)O [barasertib]
In short: as §1

[7] = compound: CC[C@H](C)[C@@H](C(=O)N[C@@H]([C@@H](C)O)C(=O)N[C@@H](CC(C)C)C(=O)[C@]1(CO1)C)NC(=O)[C@H]([C@@H](C)CC)N(C)C(=O)C [epoxomicin]
In short: as §1

[8] = compound: CCn1c(C(=O)N(C2CC2)C2CC2)cc2c3c(ncn3C)c(Nc3cc(C)n(C)n3)nc21
In short: as §1

[9] = compound: CCn1cc(-c2ccnc3[nH]c(-c4cccc(CN(C)C)c4)cc23)c(-c2ccc(NC(=O)N(C)C)cc2)n1
In short: as §1

[10] = compound: CN(C)CC(=O)Nc1ccc2[nH]c(=O)c3ccccc3c2c1
In short: as §1

[11] = compound: CN(CCOC1=CC=C(C=C1)C[C@H]2C(=O)NC(=O)S2)C3=CC=CC=N3 (racemic) [rosiglitazone]
In short: as §1

[12] = compound: CN1C2=C(C3=C1C(=O)N(N=C3)CC4=CC(=CC=C4)N)SC(=C2)S(=O)C
In short: as §1

[13] = compound: CN1CCC(CNc2ccc3ncc(-c4cccc(OC(F)(F)F)c4)n3n2)CC1
In short: as §1

[14] = compound: CC1=NC(=CC=C1)C2=C(N=C(N2)C(C)(C)C)C3=CC4=NC=CN=C4C=C3
In short: as §1

[15] = compound: CC[C@H](C)N1C=C(C2=C(C=C(C=C21)C3=CN=C(C=C3)N4CCNCC4)C(=O)NCC5=C(C=C(NC5=O)C)C)C
In short: as §1

[16] = compound: CCCc1cc(C)[nH]c(=O)c1CNC(=O)c1cc(-c2ccnc(N3CCN(C)CC3)c2)cc2c1cnn2C(C)C
In short: as §1

[17] = compound: CC1=CC=C(C=C1)SC2=C3C=C(SC3=CN=C2)C(=O)N
In short: as §1

[18] = compound: CCCS(=O)(=O)Nc1ccc(F)c(C(=O)c2c[nH]c3ncc(Cl)cc23)c1F
In short: as §1

[19] = compound: CC[C@@H]1C(=O)N(C)c2cnc(Nc3ccc(C(=O)NC4CCN(C)CC4)cc3OC)nc2N1C1CCCC1
In short: as §1

[20] = compound: CC[C@@H]1C(=O)N(C)c2cnc(Nc3ccc(C(=O)N[C@H]4CC[C@H](N5CCN(CC6CC6)CC5)CC4)cc3OC)nc2N1C(C)C [volasertib]
In short: as §1

Target | log2 fold change [1] | log2 fold change [2] | log2 fold change [3] | log2 fold change [4] | log2 fold change [5] | log2 fold change [6] | log2 fold change [7] | log2 fold change [8] | log2 fold change [9] | log2 fold change [10] | log2 fold change [11] | log2 fold change [12] | log2 fold change [13] | log2 fold change [14] | log2 fold change [15] | log2 fold change [16] | log2 fold change [17] | log2 fold change [18] | log2 fold change [19] | log2 fold change [20]
DMXL2 isoform 3 (UniProt Q8TDJ6) | inactive: -0.093 | inactive: 0.075 | inactive: 0.193 | inactive: -0.199 | inactive: 0.225 | inactive: 0.007 | inactive: 0.011 | inactive: -0.052 | inactive: 0.159 | inactive: -0.113 | inactive: -0.091 | inactive: 0.138 | inactive: -0.308 |  |  |  |  |  |  | 
DIPK2A (UniProt Q8NDZ4) | inactive: 0.007 | inactive: -0.053 |  | inactive: 0.066 | inactive: 0.174 | inactive: 0.069 |  | inactive: 0.026 |  | inactive: 0.012 | inactive: 0.163 | inactive: -0.021 |  | inactive: 0.009 | inactive: 0.08 |  |  |  |  | 
DDX47 (UniProt Q9H0S4) | inactive: 0.084 | inactive: -0.055 | inactive: 0.212 | inactive: 0.028 |  | inactive: 0.127 | inactive: -0.241 |  |  | inactive: 0.124 | inactive: -0.209 | inactive: 0.23 |  | inactive: -0.11 | inactive: 0.05 | inactive: -0.052 |  |  |  | 
DDX42 (UniProt Q86XP3) | inactive: 0.006 | inactive: -0.184 | inactive: -0.056 |  | inactive: 0.202 | inactive: 0.106 | inactive: 0.1 | inactive: -0.293 | inactive: -0.022 |  | inactive: 0.192 | inactive: 0.05 | inactive: -0.038 | inactive: 0.06 |  |  | inactive: 0.13 | inactive: 0.101 | inactive: 0.04 | inactive: -0.461
DHRS7B (UniProt Q6IAN0) | inactive: -0.008 | inactive: -0.066 | inactive: 0.003 | inactive: 0.066 | inactive: -0.029 | inactive: -0.004 | inactive: -0.106 |  | inactive: 0.059 | inactive: -0.002 |  | inactive: -0.122 | active: 0.538 | inactive: -0.001 | inactive: -0.043 | inactive: 0.04 | inactive: -0.049 | inactive: 0.06 | inactive: -0.079 | inactive: -0.147
DLD (UniProt P09622) | inactive: -0.045 | inactive: 0.025 | inactive: -0.058 | inactive: -0.021 | inactive: -0.06 | inactive: 0 | inactive: -0.015 |  | inactive: -0.007 | inactive: -0.012 |  | inactive: -0.035 | inactive: -0.118 | inactive: 0.013 | inactive: -0.028 | inactive: 0.029 | inactive: 0.008 | inactive: -0.01 | inactive: 0.043 | inactive: 0.143
DNAH5 (UniProt Q8TE73) | inactive: -0.047 | inactive: 0 | inactive: -0.021 | inactive: -0.077 | inactive: 0.012 | inactive: 0.03 | inactive: -0.052 |  | inactive: -0.009 | inactive: -0.031 |  | inactive: 0.029 | inactive: 0.03 | inactive: -0.036 | inactive: -0.079 | inactive: -0.044 | active: 0.431 | inactive: 0.014 | inactive: 0.042 | inactive: 0.01
DHPS (UniProt P49366) | inactive: -0.074 | inactive: 0.016 | inactive: -0.079 | inactive: 0.067 | inactive: -0.001 | inactive: 0.01 | inactive: 0.046 |  | inactive: 0.014 | inactive: -0.012 |  | inactive: -0.017 | inactive: -0.049 | inactive: 0.161 | inactive: 0.001 | inactive: -0.015 | inactive: 0.034 | inactive: 0.008 | inactive: 0.045 | inactive: 0.028
DENND4B (UniProt O75064) | inactive: 0.071 | inactive: -0.025 | inactive: 0.165 | inactive: 0.013 | inactive: -0.001 | inactive: 0.04 | inactive: -0.028 | inactive: -0.059 | inactive: 0.064 | inactive: 0.001 | inactive: -0.148 | inactive: -0.04 | inactive: -0.097 | inactive: -0.017 | inactive: 0.106 | inactive: -0.028 | inactive: -0.007 | inactive: -0.067 |  | inactive: 0.034
DIDO1 (UniProt Q9BTC0) | inactive: -0.062 | inactive: 0.011 | inactive: 0.099 |  | inactive: 0.109 |  | inactive: -0.047 | inactive: -0.048 | inactive: -0.006 |  |  | inactive: 0.149 | inactive: -0.034 | inactive: 0.034 |  | inactive: -0.082 | inactive: 0.053 | inactive: -0.003 | inactive: 0 | inactive: -0.033
DLG3 (UniProt Q92796) | inactive: -0.105 | inactive: 0.044 | inactive: -0.173 | inactive: -0.111 | inactive: 0.161 | inactive: 0.021 | inactive: 0.057 | inactive: -0.033 | inactive: -0.022 | inactive: 0.039 | inactive: 0.08 | inactive: -0.084 | inactive: -0.105 | inactive: 0.014 | inactive: -0.078 | inactive: -0.058 | inactive: 0.003 | inactive: -0.042 |  | inactive: -0.001
DDB2 (UniProt Q92466) | inactive: -0.031 | inactive: 0.085 | inactive: 0.028 | inactive: -0.018 | inactive: 0.034 | inactive: -0.005 | inactive: -0.033 | inactive: -0.001 | inactive: 0.089 | inactive: -0.001 | inactive: 0.084 | inactive: 0.039 | inactive: 0.013 |  | inactive: -0.014 | inactive: -0.067 | inactive: -0.01 | inactive: 0 |  | inactive: 0.069
DDX11 (UniProt Q96FC9) | inactive: -0.04 | inactive: 0.052 | inactive: -0.011 | inactive: -0.072 | inactive: -0.029 | inactive: 0.125 | inactive: 0.099 |  |  | inactive: 0.098 |  | inactive: -0.04 |  | inactive: 0.043 | inactive: 0.128 | inactive: -0.006 | inactive: -0.035 | inactive: 0 |  | inactive: -0.084
DNAAF5 (UniProt Q86Y56) | inactive: 0.013 | inactive: 0.087 | inactive: 0.534 | inactive: -0.088 |  | inactive: -0.011 | inactive: -0.341 |  | inactive: 0.083 | inactive: 0.088 | inactive: -0.09 | inactive: 0.456 | inactive: 0.248 | inactive: -0.053 |  | inactive: 0.159 | inactive: 0.092 | inactive: -0.011 | inactive: 0.217 | inactive: 0.021
DDX27 (UniProt Q96GQ7) | inactive: -0.026 | inactive: -0.057 | inactive: 0.249 | inactive: -0.25 | inactive: 0.081 |  | inactive: -0.184 |  | inactive: 0.116 | inactive: -0.009 |  | inactive: 0.162 | inactive: 0.241 | inactive: -0.293 | inactive: 0.1 | inactive: -0.142 |  |  | inactive: -0.033 | 
DMXL1 (UniProt Q9Y485) | inactive: -0.075 | inactive: -0.004 | inactive: 0.044 | inactive: 0.008 | inactive: 0.076 | inactive: 0.068 | inactive: 0.026 |  | inactive: 0.072 | inactive: 0.012 |  | inactive: 0.01 | active: -0.276 | inactive: 0.017 | inactive: 0.029 | inactive: 0.043 | inactive: 0.025 | inactive: 0.032 | inactive: -0.119 | inactive: -0.241
DDX20 (UniProt Q9UHI6) | inactive: 0.08 | inactive: 0.041 | inactive: 0.373 |  | inactive: 0.207 | inactive: 0.068 | inactive: -0.186 | inactive: 0.051 | inactive: 0.283 |  | inactive: 0.001 | inactive: 0.132 | inactive: -0.105 | inactive: -0.137 | inactive: 0.076 | inactive: 0.02 | inactive: 0.056 | inactive: 0.085 | inactive: 0.028 | inactive: -0.471
DHRS3 (UniProt O75911) | inactive: 0.075 | inactive: -0.037 | inactive: -0.037 | inactive: -0.078 | inactive: -0.051 | inactive: -0.048 | inactive: -0.002 |  | inactive: 0.001 | inactive: -0.054 |  | inactive: -0.062 | inactive: 0.056 | inactive: 0.027 | inactive: 0.02 | inactive: -0.035 | inactive: 0.019 | inactive: -0.04 | inactive: 0.134 | inactive: 0.02
DHRS13 (UniProt Q6UX07) | inactive: -0.106 | inactive: 0.027 |  | inactive: -0.062 | inactive: 0.249 |  |  |  | inactive: -0.077 | inactive: 0.225 |  | inactive: 0.143 | inactive: 0.098 | inactive: -0.055 | inactive: 0.139 | inactive: 0.084 |  |  | inactive: 0.157 | 
DDOST (UniProt P39656) | inactive: 0.03 | inactive: -0.013 | inactive: -0.01 | inactive: 0.003 | inactive: 0.006 | inactive: 0.008 | inactive: -0.014 |  | inactive: 0.052 | inactive: -0.031 |  | inactive: 0.019 | inactive: 0.089 | inactive: 0.016 | inactive: -0.014 | inactive: -0.001 | inactive: -0.031 | inactive: -0.006 | inactive: 0.006 | inactive: -0.102

Reformatted as tab-separated lines: entries from further up
Target	log2 fold change [1]	log2 fold change [2]	log2 fold change [3]	log2 fold change [4]	log2 fold change [5]	log2 fold change [6]	log2 fold change [7]	log2 fold change [8]	log2 fold change [9]	log2 fold change [10]	log2 fold change [11]	log2 fold change [12]	log2 fold change [13]	log2 fold change [14]	log2 fold change [15]	log2 fold change [16]	log2 fold change [17]	log2 fold change [18]	log2 fold change [19]	log2 fold change [20]
DMXL2 isoform 3 (UniProt Q8TDJ6)	inactive: -0.093	inactive: 0.075	inactive: 0.193	inactive: -0.199	inactive: 0.225	inactive: 0.007	inactive: 0.011	inactive: -0.052	inactive: 0.159	inactive: -0.113	inactive: -0.091	inactive: 0.138	inactive: -0.308							
DHRS7B (UniProt Q6IAN0)	inactive: -0.008	inactive: -0.066	inactive: 0.003	inactive: 0.066	inactive: -0.029	inactive: -0.004	inactive: -0.106		inactive: 0.059	inactive: -0.002		inactive: -0.122	active: 0.538	inactive: -0.001	inactive: -0.043	inactive: 0.04	inactive: -0.049	inactive: 0.06	inactive: -0.079	inactive: -0.147
DDX11 (UniProt Q96FC9)	inactive: -0.04	inactive: 0.052	inactive: -0.011	inactive: -0.072	inactive: -0.029	inactive: 0.125	inactive: 0.099			inactive: 0.098		inactive: -0.04		inactive: 0.043	inactive: 0.128	inactive: -0.006	inactive: -0.035	inactive: 0		inactive: -0.084
DHRS3 (UniProt O75911)	inactive: 0.075	inactive: -0.037	inactive: -0.037	inactive: -0.078	inactive: -0.051	inactive: -0.048	inactive: -0.002		inactive: 0.001	inactive: -0.054		inactive: -0.062	inactive: 0.056	inactive: 0.027	inactive: 0.02	inactive: -0.035	inactive: 0.019	inactive: -0.04	inactive: 0.134	inactive: 0.02
DHRS13 (UniProt Q6UX07)	inactive: -0.106	inactive: 0.027		inactive: -0.062	inactive: 0.249				inactive: -0.077	inactive: 0.225		inactive: 0.143	inactive: 0.098	inactive: -0.055	inactive: 0.139	inactive: 0.084			inactive: 0.157	
